Reference: patent publication US10596223B2, “JNK inhibitor molecules for treatment of various diseases” (Xigen Inflammation Ltd., priority 2011, dated 2020)
For part of these data: Part of at least one peptide drawing is inferred or uncertain, most often the ends. For part of these data: At least one compound was matched to its structure with a doubt left. Square brackets hold non-standard residues; d marks the D form. Peptide text beside a SMILES is read from it.

Key:
[1] = tested on: established type II collagen arthritis in rats; assay type: in vivo, rat; details: 0.05 mg/kg IV QD, p<0.05 d3-14
Source text: Rat collagen arthritis is an experimental model of polyarthritis that has been widely used for preclinical testing of numerous anti-arthritic agents that are either under preclinical or clinical investigation or are currently used as therapeutics in this disease. The hallmarks of this model are reliable onset and progression of robust, easily measurable polyarticular inflammation, marked cartilage destruction in association with pannus formation, and mild to moderate bone resorption and periosteal bone proliferation.
Intravenous (IV) efficacy of the JNK inhibitor of SEQ ID NO: 172 administered daily (QD) for 14 days (arthritis d1-14) for inhibition of the inflammation (paw swelling), cartilage destruction, and bone resorption that occurs in established type II collagen arthritis in rats was determined in said experimental model. […]
Female Lewis rats with established type II collagen arthritis were treated daily (QD) on arthritis days 1-14 by the intravenous (IV) route with vehicle (NaCl), SEQ ID NO: 172 (0.01, 0.1, 1, or 5 mg/kg), or the reference compound dexamethasone (Dex, 0.05 mg/kg). […] Efficacy evaluation was based on animal body weights, daily ankle caliper measurements, ankle diameter expressed as area under the curve (AUC), terminal hind paw weights, and histopathologic evaluation of ankles and knees of selected groups. […]

[2] = tested on: scopolamine-induced dry eye in mice; assay: Scopolamine-induced model of dry eye (TBUT, PRTT, histopathology); assay type: in vivo, mouse; details: for Mean PRTT AUC: Day 7-21; for Mean Calculated TBUT AUC: Day 7 to Day 21
Method: The objective of this study was to assess the effects of two different compounds, the all-D-retro-inverso JNK-inhibitor (poly-)peptide of SEQ ID NO: 197 and the JNK inhibitor (poly-)peptide of SEQ ID NO: 172, at three dose levels in a mouse model of scopolamine-induced dry eye.
The peptides of SEQ ID NO: 197 and SEQ ID NO: 172 were tested for efficacy in this murine model of dry eye. The peptides were both tested at a low, medium and a high dose. […] The vehicle, which also served as the negative control, was 0.9% Sodium Chloride for Injection USP.
The study consisted of a total of 9 groups of female C57BL/6 mice, comprising 8 groups of 12 mice each and an additional group of 4 mice. Bilateral short-term dry eye was induced by a combination of scopolamine hydrobromide (Sigma-Aldrich Corp., St. Louis, Mo.) injection (subcutaneous (SC), four times daily, 0.5 mg/dose, Days 0-21) and by exposing mice to the drying environment of constant air draft. […] Mice of Group 9 were maintained as un-induced, (no dry eye) untreated controls.
During the in-life (treatment) period, clinical observations were recorded once daily; slit-lamp examination (SLE) with corneal fluorescein staining, tear break-up time test (TBUT), and phenol red thread test (PRTT) were performed three times per week. Necropsies were performed on Day 22; eyes, eye lids, conjunctivae, and lacrimal glands were collected from both eyes of each animal. Tissues from the right eyes (oculus dexter, OD) were fixed and then evaluated microscopically. Tissues from the left eyes (oculus sinister; OS) were flash-frozen in liquid nitrogen and stored frozen at −80° C. for possible subsequent analyses.
Prior to the start of the study, the (poly-)peptides of SEQ ID NO: 172 and of SEQ ID NO: 197 were formulated in sterile saline (vehicle). Dosing solutions at each concentration were sterilized using 0.2-μm filters, aliquoted to multiple pre-labeled vials, and frozen at −20° C.
Prior to entry into the study, each animal underwent a SLE and indirect ophthalmic examination using topically-applied fluorescein. Ocular findings were recorded using the Draize scale ocular scoring. SLE and Draize scoring were repeated three times a week during the in-life period.
The TBUT test was conducted three times weekly by measuring the time elapsed in seconds between a complete blink after application of fluorescein to the cornea and the appearance of the first random dry spot in the tear film. […] At least ninety seconds later, corneal epithelial damage was graded using a slit-lamp with a cobalt blue filter after another drop of 0.1% fluorescein was reapplied to the cornea; the cornea then was scored per the Draize ocular scale.
Tear production was measured three times a week in both eyes using PRTT test strips (Zone-Quick; Menicon, Nagoya, Japan). Prior to the first treatment of the day, a thread was applied to the lateral canthus of the conjunctival fornix of each eye for 30 seconds under slit-lamp biomicroscopy. Tear migration up the tread (i.e., the length of the wetted cotton thread) was measured using a millimeter scale.
At necropsy on Day 22, both eyes from each animal, including the globes, lacrimal glands, eyelids, and conjunctivae, were excised.

JNK = assay: Inhibitory capacity towards JNK (FIG. 4, AlphaScreen), isoform not stated; assay type: biochemical; details: compared with L-TAT-IB1, see FIG. 4
[3] = tested on: endotoxins-induced uveitis albino rat model; assay: Endotoxins induced uveitis (EIU), single intravenous injection, clinical scoring 24 hours after LPS; assay type: in vivo; set-up: key to clinical score of ocular inflammation, mean score (mean±SEM) / clinical score of ocular inflammation, median: ocular inflammation score per eye, 0 = none to 4 = intense (+1 fibrin)
Method: FIG. 28 Clinical evaluation of administration of different amounts of the JNK inhibitor according to SEQ ID NO: 172 in albino rats after intravenous administration (endotoxins induced uveitis model). Form left to right: Vehicle, 0.015 mg/kg (i.v.) of SEQ ID NO: 172; 0.18 mg/kg (i.v.) of SEQ ID NO: 172; 1.8 mg/kg (i.v.) of SEQ ID NO: 172, 2 mg/kg (i.v.) of SEQ ID NO: 197 and 20 μg dexamethasone (administered directly by subconjunctival injection to the eye). Indicated is the clinical score (mean and the SEM).
The anti-inflammatory potency of the JNK inhibitor of SEQ ID NO: 172 was tested in albino rats following intravenous administration (EIU/LPS model). The aim of this study was to determine the effects of single intravenous injections of SEQ ID NO: 172 (0.015, 0.18, and 1.80 mg/kg) on the inflammatory response in an endotoxins-induced uveitis albino rat model and to compare these affects to those obtained with prior art JNK inhibitor of SEQ ID NO: 197 (2 mg/kg). As a further control served phosphate sodic dexamethasone.
Sixty (60) male Lewis rats were randomly divided into six (6) groups of ten (10) animals each. EIU was induced by footpad injection of lipopolysaccharide (LPS, 1 mg/kg). NaCl (0.9%), SEQ ID NO: 197 at 2 mg/kg and SEQ ID NO: 172 at three concentrations (1.80 mg/kg, 0.18 mg/kg and 0.015 mg/kg) were administered by intravenous injection. Phosphate sodic dexamethasone ([…]) was administered by sub-conjunctival injection in both eyes. 24 hours after LPS injection, inflammatory response was evaluated by clinical scoring.
The intensity of clinical ocular inflammation was scored on a scale from 0 to 4 for each eye: • Grade 0 no inflammation • Grade 1 slight iris and conjunctival vasodilation • Grade 2 moderate iris and conjunctival vasodilation with flare • Grade 3 intense iris and conjunctival vasodilation with flare • Grade 4 intense inflammatory reaction • (+1) fibrin formation and seclusion of pupils

[4] = topical ocular TID, Days 1 to 21
[5] = 2 mg/kg intravenous, 24 hours after LPS

SMILES	daily ankle diameter measurements vs disease controls [1]	corneal changes (histopathology) ([2]; 0.06% (low dose), Day 22, compared with the other treatment groups)	Mean PRTT AUC ([2]; 0.06% TID OU)	Mean PRTT AUC ([2]; 0.25% TID OU)	Mean PRTT AUC ([2]; 0.6% TID OU)	Mean Calculated TBUT AUC ([2]; 0.06% TID OU)	Mean Calculated TBUT AUC ([2]; 0.25% TID OU)	Mean Calculated TBUT AUC ([2]; 0.6% TID OU)	PRTT, production of aqueous tears, low, mid and high dose (in words) [2, 4]	TBUT means, low, mid and high dose (in words) [2, 4]	inhibitory capacity (JNK) (JNK)	clinical score of ocular inflammation, median [3, 5]	decrease of EIU scores compared with vehicle group [3, 5]	clinical score of ocular inflammation, mean score (mean±SEM) ([3]; 2 mg/kg intravenous, 24 hours after LPS, scale 0 to 4 (+1))	endotoxin-induced inflammation in the anterior chamber (conclusion) ([3]; single intravenous injection, SEQ ID NO: 197 at 2 mg/kg, SEQ ID NO: 172 at 0.015, 0.18, 1.80 mg/kg)
C[C@@H]1C[C@H]2[C@@H]3CCC4=CC(=O)C=C[C@]4(C)[C@@]3(F)[C@@H](O)C[C@]2(C)[C@@]1(O)C(=O)CO [dexamethasone, reference compound]	reduced toward normal	–	–	–	–	–	–	–	–	–	–	–	–	–	–
CC(C)C[C@@H](NC(=O)[C@@H](Cc1ccccc1)NC(=O)[C@H]1CCCN1C(=O)[C@@H](CCC(N)=O)NC(=O)[C@H](NC(=O)[C@H]1CCCN1C(=O)[C@@H](CCCNC(=N)N)NC(=O)[C@@H](CO)NC(=O)[C@@H](CCC(N)=O)NC(=O)[C@H](N)CC(=O)O)C(C)C)C(=O)N[C@H](CC(N)=O)C(=O)N[C@H](CC(C)C)C(=O)N[C@@H](C(=O)N[C@@H](C(=O)N1CCC[C@@H]1C(=O)N[C@H](CCCNC(=N)N)C(=O)N[C@H](CCCCN)C(=O)N1CCC[C@@H]1C(=O)N[C@H](CCCNC(=N)N)C(=O)N1CCC[C@@H]1C(=O)N1CCC[C@@H]1C(=O)N[C@H](CCCNC(=N)N)C(=O)N[C@H](CCCNC(=N)N)C(=O)N[C@H](CCCNC(=N)N)C(=O)N[C@H](CCC(N)=O)C(=O)N[C@H](CCCNC(=N)N)C(=O)N[C@H](CCCNC(=N)N)C(=O)N[C@H](CCCCN)C(=O)N[C@H](CCCCN)C(=O)N[C@H](CCCNC(=N)N)C(=O)NCC(=O)O)[C@H](C)O)[C@H](C)O [SEQ ID NO: 197, dqsrpvqpflnittprkprpprrrqrrkkrg] (H-[dD][dQ][dS][dR][dP][dV][dQ][dP][dF][dL][dN][dL][dT][dT][dP][dR][dK][dP][dR][dP][dP][dR][dR][dR][dQ][dR][dR][dK][dK][dR]G-OH; N-terminus and C-terminus assumed)	–	slightly more severe	39.96	42.79	43.17	88.54	91.19	89.98	generally dose-dependent increases in PRTT	slight generally dose-dependent increases in TBUT	significant decrease in inhibitory capacity in comparison to L-TAT-IB1	2	40%	2.2±0.3	partially prevented the endotoxin-induced inflammation
